Results published in US20040005311A1, “Dietary supplement compositions” (priority 2003, published 2004).

Tested on: Alzheimer's disease-related / dementia-related symptoms
Assay: Dietary supplementation of dementia subjects (case accounts by caregiver and physician)
Format: in vivo, human
Settings: Subject #2, dementia-type disease; initially placed on the prescription drug

COc1cc2c(cc1OC)C(=O)C(CC1CCN(Cc3ccccc3)CC1)C2 (stereo not shown) [Aricept]
confusion: observed to become more confused
